Patent US9256062B2, “Electrowetting display apparatus and dye composition for electrowetting display” (FUJIFILM CORPORATION, priority 2012, dated 2016)

Test: OD (image density) of dye ink in electrowetting test cell, spectroradiometer
Details: at maximum absorption wavelength, per 1 μm of oil layer

SMILES: CCCCC(CC)c1nnc2n1N=C(C(C)(C)C)/C2=N/c1c(C(C)(C)C)nn2c(C(CC)CCCC)n[nH]c12 (stereo not drawn) [Exemplary Compound 1]
- OD (dye concentration 10% by mass): 0.7

SMILES: CCCCC(CC)c1n[nH]c2c(/N=C3/C(C#N)=C(C(=O)OC4C(C(C)(C)C)CC(C)CC4C(C)(C)C)c4nc(C(C)(C)C)nn43)c(C(C)(C)C)nn12 (stereo not drawn) [Exemplary Compound 3]
- OD (dye concentration 10% by mass): 0.8
- OD (dye concentration 40% by mass): 2.8
